Source: paper doi:10.1101/2022.01.03.474785

B1: Did2 (protein, UniProt P69771 1-204)
chain: MSRNSAAGLENTLFQLKFTSKQLQKQANKASKEEKQETNKLKRALNENEDISRIYASNAIRKKNERLQLLKLASRVDSVASRVQTAVTMRQVSASMGQVCKGMDKALQNMNLQQITMIMDKFEQQFEDLDTSVNVYEDMGVNSDAMLVDNDKVDELMSKVADENGMELKQSAKLDNVPEIKAKEVNVDDEKEDKLAQRLRALRG
B2: Ykr075c (protein, UniProt P36155 1-307)
chain: MTSLDDTIISYQNIMLLDNMTNYNKPAIDYFHHEFNDASLEISASWTLLLKMRKHKLLRLPSCSSEDVLDYNMYLVRLHHCLWRRWSINHYGLQNSKSNPLSINWNKETDVTVLYGPDLTNIDSNENEISPVQNQIDQKQTKNLKSALKKNTECWVTEEVDEINASIESNDNALVKLEDISCPSSVDSHTSSIFDQHSTCTKISSIDEDSEDLMNEKKEQFPRKLKFNQAVMKREIDSKGTIRESLININDIQHSRHHRRHHRRHHHHHHQNSSHSDETIKEAHYEFSNYTFGTMEEDIFYRNQVVF
B3: Bag7 (protein, UniProt Q12128 1-409)
chain: MFNMNLLSTPSSEEGSPQNRSSSMSSVEGKKDRDTFTNLQNEFDGKVFGVSLEESLKVAQEEVIIQKSTNEIGSIPVVIAKSGKYLKENALDTTGIFRIAGSNKRVRELQAVFSKPPDYGRKFEGWCDFNVHDIATLLKRYLNSLSEPLVPLALYDIFRNPILENPKINEHKEQIIKDYEDIYMLLPQQNRHLILYLAALLNLFARNEKKNLMSASNLAAIVQPSLLSHPKDEMCPKEYEASRTVIEFLILHASDIIPNTEKANKDTMPHAGTVAKFNNITVPEMAIDSDEEDFVHPSIDDHMLPRSRALSDSNNFTIHHHHHHHHALFPSPIDFDNNGLSVPRSFKGRTLSAESLSPRLSKLLGNVGNSSNTGIKDPTERVPRGEHKTKHKQRQSWLRRLTSPSRTQP

What was measured:
Mos10-6His (yeast) = target: T1, Mos10-6His (yeast) (UniProt Q03390); experiment: affinity purification with mass spectrometry
T1 sequence: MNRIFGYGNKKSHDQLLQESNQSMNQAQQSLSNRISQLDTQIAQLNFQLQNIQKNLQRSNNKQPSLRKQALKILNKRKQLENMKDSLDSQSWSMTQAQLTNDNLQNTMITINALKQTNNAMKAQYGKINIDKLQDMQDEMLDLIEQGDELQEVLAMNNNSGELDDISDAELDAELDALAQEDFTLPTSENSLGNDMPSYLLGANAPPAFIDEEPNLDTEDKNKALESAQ

Mos10-sfGFP (yeast) = target: T2, Mos10-sfGFP (yeast) (UniProt Q03390); experiment: affinity purification with mass spectrometry
T2 sequence: T1 sequence

Binder	binding (Mos10-6His (yeast))	binding (Mos10-sfGFP (yeast))
B1	binds	binds
B2	no binding	–
B3	no binding	–

Results are given in words; binding and its absence hold for the method and conditions named. In cells and extracts the contact can be indirect. Here binding means that the protein was enriched with, or labelled near, the bait; the list need not be complete. For some of these results: No binding means not detected with the bait. Where a sequence is shown, tags or fusion partners need not be part of it.
